No constants are given. Whether binding was seen depends on the method and setting. In cells and extracts the contact can be indirect. These calls come from enrichment with a bait or labelling near it, and not all partners need be listed. No binding means not detected with the bait.

Amino acid sequences for entries named in this document (tags omitted). Residues count along the entry.
UniProt O54851: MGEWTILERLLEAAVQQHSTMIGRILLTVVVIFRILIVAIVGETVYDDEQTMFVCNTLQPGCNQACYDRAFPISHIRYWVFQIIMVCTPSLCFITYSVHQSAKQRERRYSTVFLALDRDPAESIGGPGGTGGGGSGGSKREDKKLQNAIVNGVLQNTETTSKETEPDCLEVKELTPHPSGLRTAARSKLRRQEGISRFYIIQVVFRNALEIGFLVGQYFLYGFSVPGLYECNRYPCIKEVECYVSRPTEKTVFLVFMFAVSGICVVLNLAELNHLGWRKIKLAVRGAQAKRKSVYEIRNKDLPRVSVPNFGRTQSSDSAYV
UniProt Q8VBX6: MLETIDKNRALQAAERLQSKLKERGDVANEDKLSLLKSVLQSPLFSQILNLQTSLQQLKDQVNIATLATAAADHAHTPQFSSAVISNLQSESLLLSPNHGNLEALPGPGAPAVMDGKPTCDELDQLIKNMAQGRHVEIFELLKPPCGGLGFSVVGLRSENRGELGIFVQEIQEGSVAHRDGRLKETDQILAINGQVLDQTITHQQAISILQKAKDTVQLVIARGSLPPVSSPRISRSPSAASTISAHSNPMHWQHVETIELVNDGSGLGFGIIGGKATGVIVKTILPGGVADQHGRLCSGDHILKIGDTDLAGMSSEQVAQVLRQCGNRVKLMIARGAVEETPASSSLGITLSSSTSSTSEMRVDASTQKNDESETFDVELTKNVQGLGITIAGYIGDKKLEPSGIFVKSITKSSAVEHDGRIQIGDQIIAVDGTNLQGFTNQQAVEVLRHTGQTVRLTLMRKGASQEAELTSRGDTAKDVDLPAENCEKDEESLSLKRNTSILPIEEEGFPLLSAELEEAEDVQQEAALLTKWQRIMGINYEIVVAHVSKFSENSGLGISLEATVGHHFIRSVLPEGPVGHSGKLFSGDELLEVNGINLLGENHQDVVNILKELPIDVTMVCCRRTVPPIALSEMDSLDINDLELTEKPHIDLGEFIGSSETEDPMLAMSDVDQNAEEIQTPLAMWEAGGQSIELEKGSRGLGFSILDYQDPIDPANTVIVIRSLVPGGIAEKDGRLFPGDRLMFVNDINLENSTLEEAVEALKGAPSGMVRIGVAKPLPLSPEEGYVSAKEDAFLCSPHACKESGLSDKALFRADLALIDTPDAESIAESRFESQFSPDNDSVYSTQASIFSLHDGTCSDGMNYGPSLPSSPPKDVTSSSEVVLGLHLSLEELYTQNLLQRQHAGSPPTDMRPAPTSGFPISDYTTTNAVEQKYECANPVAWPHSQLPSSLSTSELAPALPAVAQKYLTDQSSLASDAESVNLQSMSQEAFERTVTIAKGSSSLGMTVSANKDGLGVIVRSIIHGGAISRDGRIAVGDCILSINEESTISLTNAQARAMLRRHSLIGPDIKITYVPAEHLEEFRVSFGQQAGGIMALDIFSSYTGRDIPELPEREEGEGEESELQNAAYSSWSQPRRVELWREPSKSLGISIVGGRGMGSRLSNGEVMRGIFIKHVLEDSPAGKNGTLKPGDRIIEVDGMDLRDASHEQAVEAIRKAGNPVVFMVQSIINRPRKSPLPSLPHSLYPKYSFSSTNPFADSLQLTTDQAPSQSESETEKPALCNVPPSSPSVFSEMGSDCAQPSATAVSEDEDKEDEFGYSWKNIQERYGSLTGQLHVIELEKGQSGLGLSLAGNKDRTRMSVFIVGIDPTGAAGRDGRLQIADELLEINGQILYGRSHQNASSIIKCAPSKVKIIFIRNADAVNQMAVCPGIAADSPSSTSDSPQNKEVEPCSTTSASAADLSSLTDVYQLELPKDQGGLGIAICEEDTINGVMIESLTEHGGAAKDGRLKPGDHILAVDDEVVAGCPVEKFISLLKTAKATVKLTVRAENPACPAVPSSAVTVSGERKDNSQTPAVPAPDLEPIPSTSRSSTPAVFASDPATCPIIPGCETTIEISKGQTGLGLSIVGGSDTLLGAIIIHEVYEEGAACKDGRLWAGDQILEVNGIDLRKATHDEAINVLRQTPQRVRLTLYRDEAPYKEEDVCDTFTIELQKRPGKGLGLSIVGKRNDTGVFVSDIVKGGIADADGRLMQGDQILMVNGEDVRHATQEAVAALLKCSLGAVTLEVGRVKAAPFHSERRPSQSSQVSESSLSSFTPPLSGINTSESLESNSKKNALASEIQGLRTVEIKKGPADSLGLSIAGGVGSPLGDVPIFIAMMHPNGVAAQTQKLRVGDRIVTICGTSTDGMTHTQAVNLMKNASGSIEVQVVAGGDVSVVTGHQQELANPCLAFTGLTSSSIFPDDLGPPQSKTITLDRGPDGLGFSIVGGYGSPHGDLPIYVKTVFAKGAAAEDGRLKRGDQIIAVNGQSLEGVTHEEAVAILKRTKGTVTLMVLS
UniProt Q9D6K5: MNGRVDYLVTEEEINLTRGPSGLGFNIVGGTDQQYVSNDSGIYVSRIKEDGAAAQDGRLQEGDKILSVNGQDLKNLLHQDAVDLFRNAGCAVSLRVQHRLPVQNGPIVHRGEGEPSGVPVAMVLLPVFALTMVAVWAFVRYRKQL
UniProt P13595, residues 20-1115: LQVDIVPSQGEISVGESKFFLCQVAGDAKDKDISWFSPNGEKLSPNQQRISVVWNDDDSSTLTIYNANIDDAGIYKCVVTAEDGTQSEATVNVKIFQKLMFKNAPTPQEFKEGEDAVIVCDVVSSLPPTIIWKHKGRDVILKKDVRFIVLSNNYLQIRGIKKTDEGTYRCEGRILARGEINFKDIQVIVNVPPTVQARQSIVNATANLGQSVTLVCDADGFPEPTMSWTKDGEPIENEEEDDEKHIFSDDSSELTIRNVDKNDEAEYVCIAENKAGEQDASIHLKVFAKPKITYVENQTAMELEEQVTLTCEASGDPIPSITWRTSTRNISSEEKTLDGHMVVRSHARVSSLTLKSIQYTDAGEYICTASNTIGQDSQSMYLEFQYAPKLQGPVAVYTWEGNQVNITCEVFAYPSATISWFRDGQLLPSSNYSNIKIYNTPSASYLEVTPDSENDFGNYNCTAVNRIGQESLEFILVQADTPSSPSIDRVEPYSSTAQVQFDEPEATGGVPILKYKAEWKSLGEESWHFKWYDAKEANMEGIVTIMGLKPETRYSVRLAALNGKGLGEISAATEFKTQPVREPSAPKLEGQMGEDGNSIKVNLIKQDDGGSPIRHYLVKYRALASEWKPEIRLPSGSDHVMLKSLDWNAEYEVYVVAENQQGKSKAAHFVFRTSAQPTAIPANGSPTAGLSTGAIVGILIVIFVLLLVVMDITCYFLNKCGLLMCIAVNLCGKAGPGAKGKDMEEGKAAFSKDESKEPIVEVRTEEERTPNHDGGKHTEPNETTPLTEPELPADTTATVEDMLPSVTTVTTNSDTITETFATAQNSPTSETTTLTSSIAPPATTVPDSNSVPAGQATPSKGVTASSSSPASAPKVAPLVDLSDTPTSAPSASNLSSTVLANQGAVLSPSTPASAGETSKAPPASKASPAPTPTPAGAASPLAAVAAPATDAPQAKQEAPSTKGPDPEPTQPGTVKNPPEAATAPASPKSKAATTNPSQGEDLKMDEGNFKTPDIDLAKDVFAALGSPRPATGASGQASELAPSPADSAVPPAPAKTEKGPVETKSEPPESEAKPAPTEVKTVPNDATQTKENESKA
UniProt Q9Z0R4: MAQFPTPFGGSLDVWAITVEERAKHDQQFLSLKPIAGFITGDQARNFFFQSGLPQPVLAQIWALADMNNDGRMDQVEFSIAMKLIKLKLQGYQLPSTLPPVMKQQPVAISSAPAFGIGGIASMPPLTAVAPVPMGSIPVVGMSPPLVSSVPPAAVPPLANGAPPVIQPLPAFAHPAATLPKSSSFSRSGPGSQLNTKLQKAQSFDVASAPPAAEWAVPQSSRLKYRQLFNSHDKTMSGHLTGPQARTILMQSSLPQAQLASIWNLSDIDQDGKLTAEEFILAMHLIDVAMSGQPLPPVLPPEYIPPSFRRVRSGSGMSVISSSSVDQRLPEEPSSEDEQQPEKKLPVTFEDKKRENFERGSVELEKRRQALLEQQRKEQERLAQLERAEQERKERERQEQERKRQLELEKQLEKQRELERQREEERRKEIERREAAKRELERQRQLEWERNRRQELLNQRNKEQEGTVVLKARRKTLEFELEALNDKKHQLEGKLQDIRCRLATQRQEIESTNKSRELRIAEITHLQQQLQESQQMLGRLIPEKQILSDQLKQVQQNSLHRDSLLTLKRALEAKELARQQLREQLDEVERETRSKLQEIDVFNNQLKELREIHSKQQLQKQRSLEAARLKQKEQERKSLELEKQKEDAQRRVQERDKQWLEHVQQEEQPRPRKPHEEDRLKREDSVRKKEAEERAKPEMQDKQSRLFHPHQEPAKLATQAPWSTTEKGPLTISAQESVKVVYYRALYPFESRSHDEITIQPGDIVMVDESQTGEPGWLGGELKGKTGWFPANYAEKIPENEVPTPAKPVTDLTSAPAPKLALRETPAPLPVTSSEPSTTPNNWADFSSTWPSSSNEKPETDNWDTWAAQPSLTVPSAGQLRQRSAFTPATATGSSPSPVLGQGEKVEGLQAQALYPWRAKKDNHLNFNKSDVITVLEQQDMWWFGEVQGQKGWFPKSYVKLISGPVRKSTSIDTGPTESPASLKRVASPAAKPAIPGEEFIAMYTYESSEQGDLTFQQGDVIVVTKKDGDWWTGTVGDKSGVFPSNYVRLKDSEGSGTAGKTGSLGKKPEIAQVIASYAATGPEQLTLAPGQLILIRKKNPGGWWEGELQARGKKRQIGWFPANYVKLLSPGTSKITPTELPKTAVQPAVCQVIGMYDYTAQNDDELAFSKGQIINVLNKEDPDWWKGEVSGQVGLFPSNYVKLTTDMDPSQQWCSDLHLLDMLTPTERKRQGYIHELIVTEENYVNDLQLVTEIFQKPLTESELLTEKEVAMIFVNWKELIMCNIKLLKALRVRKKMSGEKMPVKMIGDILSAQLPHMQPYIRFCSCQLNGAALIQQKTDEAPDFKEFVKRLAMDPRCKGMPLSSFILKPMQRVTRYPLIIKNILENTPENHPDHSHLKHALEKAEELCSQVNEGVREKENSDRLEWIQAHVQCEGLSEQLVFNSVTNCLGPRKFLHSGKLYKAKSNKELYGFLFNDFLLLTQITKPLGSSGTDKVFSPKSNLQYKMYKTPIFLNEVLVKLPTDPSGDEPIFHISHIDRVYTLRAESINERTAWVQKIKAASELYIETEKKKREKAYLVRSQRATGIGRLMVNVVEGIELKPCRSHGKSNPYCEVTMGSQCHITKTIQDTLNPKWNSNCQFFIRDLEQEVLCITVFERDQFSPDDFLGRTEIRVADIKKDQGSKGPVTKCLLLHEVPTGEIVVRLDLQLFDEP
UniProt P59242: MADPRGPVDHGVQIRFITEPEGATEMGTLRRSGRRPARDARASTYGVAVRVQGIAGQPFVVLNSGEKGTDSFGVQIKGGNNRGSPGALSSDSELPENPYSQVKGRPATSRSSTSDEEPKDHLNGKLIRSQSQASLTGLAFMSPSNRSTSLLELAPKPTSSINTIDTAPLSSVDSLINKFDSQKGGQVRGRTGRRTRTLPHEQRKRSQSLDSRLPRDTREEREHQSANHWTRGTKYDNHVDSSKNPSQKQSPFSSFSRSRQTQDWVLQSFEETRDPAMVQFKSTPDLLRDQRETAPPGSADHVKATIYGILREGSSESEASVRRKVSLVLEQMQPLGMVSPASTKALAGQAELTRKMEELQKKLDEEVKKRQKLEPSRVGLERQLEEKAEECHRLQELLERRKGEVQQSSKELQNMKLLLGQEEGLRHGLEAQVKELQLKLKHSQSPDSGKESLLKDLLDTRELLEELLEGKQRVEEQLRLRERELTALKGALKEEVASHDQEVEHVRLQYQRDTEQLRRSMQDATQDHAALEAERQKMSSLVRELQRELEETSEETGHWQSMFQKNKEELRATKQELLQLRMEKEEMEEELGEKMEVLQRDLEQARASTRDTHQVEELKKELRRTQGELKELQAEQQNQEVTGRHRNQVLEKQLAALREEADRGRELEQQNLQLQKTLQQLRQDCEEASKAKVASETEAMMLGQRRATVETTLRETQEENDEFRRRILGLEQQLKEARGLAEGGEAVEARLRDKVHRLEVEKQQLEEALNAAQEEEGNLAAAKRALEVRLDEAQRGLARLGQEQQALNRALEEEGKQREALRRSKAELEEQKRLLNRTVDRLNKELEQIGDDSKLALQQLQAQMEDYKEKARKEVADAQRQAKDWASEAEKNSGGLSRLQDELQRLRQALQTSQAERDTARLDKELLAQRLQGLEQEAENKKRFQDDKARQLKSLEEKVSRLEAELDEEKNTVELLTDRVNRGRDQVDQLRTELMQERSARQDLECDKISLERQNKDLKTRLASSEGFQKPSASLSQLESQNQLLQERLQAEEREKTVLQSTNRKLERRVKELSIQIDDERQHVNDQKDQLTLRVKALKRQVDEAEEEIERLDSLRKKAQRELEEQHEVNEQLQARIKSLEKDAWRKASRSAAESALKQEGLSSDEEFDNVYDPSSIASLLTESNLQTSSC

From PMC13189625 come the findings set out here.

This test deals with Cx36-EGFP (mouse) (UniProt O54851). Briefly: proximity labelling; GFP-directed TurboID in vivo: AAV HKamac_V5-TurboID-dGBP injected intravitreally into Cx36-EGFP mice (AII amacrine cells); 5 mM biotin subcutaneously on 4 days; 17 retinas a condition; streptavidin pull-down and LC/MS/MS; compared with injected wild-type mice, SAINT; done twice.

Turning to “Mupp1 (mouse retina) (from UniProt Q8VBX6 1-2055)”, the binding result is reported as “no binding”.

Turning to “brain-specific angiogenesis inhibitor 1 (from UniProt Q3UHD1 34-1582) (receptor)”, the binding entry is recorded as “binds”. To “synaptojanin 2 binding protein (mouse retina) (from UniProt Q9D6K5 1-145)” belongs “binds”; to “Signal-induced proliferation-associated 1-like protein 1 (from UniProt Q8C0T5 1-1782)”, “binds”. Regarding “Neural cell adhesion molecule 1 (from UniProt P13595 20-1115)”, the binding entry was “binds”. The result for “microtubule-associated protein 6 (from UniProt Q7TSJ2 1-906)” reads “binds”; that for “Golgin subfamily A member 4 (from UniProt Q91VW5 1-2238)”, “binds”; that for “signal induced proliferation associated 1 like 3 (mouse retina) (from UniProt G3X9J0 1-1776)”, “binds”.

As to “Apical junction component 1 (from UniProt A2AJA9 1-974)”, the binding result is “binds”. The result for “Afadin (mouse retina) (from UniProt Q9QZQ1 1-1820)” reads “binds”. To “Neurobeachin (from UniProt Q9EPN1 1-2936)” belongs “binds”; to Itsn1 (from UniProt Q9Z0R4 1-1714), “binds”; to cingulin (from UniProt P59242 1-1191), “binds”.

On to “Syntaxin binding protein 1 (from UniProt O08599 1-594)”, for which the binding entry is given as “binds”.

B1: Snap91 (mouse retina) (protein, UniProt Q61548 1-901)
chain: MSGQTLTDRIAAAQYSVTGSAVARAVCKATTHEVMGPKKKHLDYLIQATNETNVNIPQMADTLFERATNSSWVVVFKALVTTHHLMVHGNERFIQYLASRNTLFNLSNFLDKSGSHGYDMSTFIRRYSRYLNEKAFSYRQMAFDFARVKKGADGVMRTMVPEKLLKSMPILQGQIDALLEFDVHPNELTNGVINAAFMLLFKDLIKLFACYNDGVINLLEKFFEMKKGQCKDALEIYKRFLTRMTRVSEFLKVAEQVGIDKGDIPDLTQAPSSLMETLEQHLNTLEGKKPGNNEGSGAPSPLSKSSPATTVTSPNSTPAKTIDTSPPVDIFATASAAAPVSSAKPSSDLLDLQPDFSGAAAGAAAPVVPPSGGATAWGDLLGEDSLAALSSVPCEAPISDPFAPEPSPPTTTTEPASASASTTTAVTAVTTEVDLFGDAFAASPGEAPAASEGATAPATPAPVAAALDACSGNDPFAPSEGSAEAAPELDLFAMKPPETSAPVVTPTASTAPPVPATAPSPAPTAVAATAATTTAAAAATTTATTSAAAATTAAAPPALDIFGDLFDSAPEVAAAPKPDAAPSIDLFGTDAFSSPPRGASPVPESSLTADLLSVDAFAAPSPASTASPAKAESSGVIDLFGDAFGSGASETQPAPQAVSSSSASADLLAGFGGSFMAPSTTPVTPAQNNLLQPSFEAAFGTTPSTSSSSSFDPSVFDGLGDLLMPTMAPSGQPAPVSMVPPSPAMAASKGLGSDLDSSLASLVGNLGISGTTSKKGDLQWNAGEKKLTGGANWQPKVTPATWSAGVPPQGTVPPTSSVPPGAGAPSVGQPGAGFGMPPSGTGMTMMSQQPVMFAQPMMRPPFGAAAVPGTQLSPSPTPATQSPKKPPAKDPLADLNIKDFL
As to B1, the binding result was “binds”.

B2: Eps15l1 (mouse retina) (protein, UniProt Q60902 1-907)
chain: MAAPLVPLSQQIPGGNPLYESYYKQVDPAYTGRVGASEAALFLKKSGLSDIILGKIWDLADPEGKGFLDKQGFYVALRLVACAQSGHEVTLSSLSLTMPPPKFHDTSSPLMATQSSAETHWAVRVEEKAKFDGIFESLLPVNGLLSGDKVKPVLMNSKLPLDVLGRVWDLSDIDKDGHLDRDEFAVAMHLVYRALEKEPVPSILPPPLIPPSKRKKTVFAGAVPVLPASPPPKDSLRSTPSHGSVSSLNSTGSLSPKHSVKQPPVAWVVPVADKMRFDEIFLKTDLDLDGYVSGQEVKEIFMHSGLTQNLLAHIWALADTRQTGKLSKEQFALAMYFIQQKVSKGIDPPQVLSPDMVPPSERGTPIPDSSSTLASGEFTGVKELDDISQEIAQLQREKYSLEQDIREKEEAIRQKTSEVQELQNDLDRETSSLQELEAQKQDAQDRLDEMDQQKAKLRDMLSDVRQKCQDETQTISSLKTQIQSQESDLKSQEDDLNRAKSELNRLQQEETQLEQSIQAGRAQLETILRSLKCTQDDINQARSKLSQLQESHLEAHRSLEQYDQVPDGVSGTSLPDLATLNEGILLAERGGFGAMDDPFKNKALLFSNNSQELHPDPFQAEDPFKSDPFKGADPFKGDPFQSDPFSEQQTAATDPFGGDPFKESDPFHSSSSDDFFKKQTKNDPFTSDPFTKNPSLPSKLDPFESSDPFSSSSISSKGSDPFGTLDPFGSSSFSSAEGFADFSQMSKPPPSGPFSSSLGGTGFSDDPFKSKQDTPALPPKKPAPPRPKPPSGQSTPVSQLGSSDFPESPDPFQPLGADSGDPFQNKKGFGDPFSGKDPFAPSSSAKPPKTSSSGFADFTSFGNEEQQLAWAKRESEKAEQERLARLRRQEQEDLELAIALSKADMPA
With B2, the binding entry is “binds”.

B3: ZO-2 (mouse retina) (protein, UniProt Q9Z0U1 1-1167)
chain: MEEVIWEQYTVTLQKDSKRGFGIAVSGGRDNPHFENGETSIVISDVLPGGPADGLLQENDRVVMVNGTPMEDVLHSFAVQQLRKSGKIAAIVVKRPRKVQVAPLQGSPPLSHDDRGFEVIEEFDGRSFRSGYSERSRHSSHDMLSHSWEGNRERGRPHQRTQSRERERSRGRSLERGLDQEDYGRSRERSRGRSLERGLDRDFVSRDHSRGRSIDRDYDRDYERSYHEAYEPDYGGGYSPSYDRRAHPETRYERSRSREHLRSRSPSPESRSRHEHKGQHDPDRPIGVLLTKSKANEEYGLRLGSQIFIKEMTRTGLATKDGNLHEGDIILKINGTVTENMSLTDARKLIEKSRGKLQLVVLRDSKQTLINIPALNDSDSEVEDISEIESNRSFSPEERRQQYSDQDYHSSTEKLKERPSSREETSGRLSRMGATPTPFKSTGDITAAGVTEASREPRYQEEGPVPQPRTAPRVFLRPSPEDEAIYGPNTKMVRFKKGDSVGLRLAGGNDVGIFVAGIQEGTSAEQEGLQEGDQILKVNTQDFRGLVREDAVLYLLEIPKGETVTILAQSRADVYRDILACGRGDSFFIRSHFECEKETPQSLAFTRGEVFRVVDTLYDGKLGHWLAVRIGNELEKGLIPNKSRAEQMASVQNAQRENAGDRADFWRMRGQRSSGGVKKNLRKSREDLAAAVSVSTKFPAYEKVLLREAGFKRPVVLFGPIADIAMERLATELPDLFQTAKTEPKDAGSEKSSGVVRLNTVRQIIEQDKHALLDVTPKAVDLLNYTQWFPIVIFFNPDSRQGVKTIRQRLSPTSNKSSRKLFDQANKLKKTCSHLFTATINVNSANDGWFGSLKDSIQQQQNEAVWVSEGKMEGMDDDAEDRMSYLTAMGADYLSCDSRLISDFEDTDGEGGAYTDNELEEPAEEPLVSSITRSSEPVQHEENIRKSSPEPRAQMRRAASRDQLRDASPPPAFKPEPPKARSQNREDSFDYSKSNLPATAGSEIPGGSTKGYPPPIAAKPAFGRPILKPSTPVPMPESEEVGESTEEQEDAPRSVLGRVKIFEKMDHKAKLQRMQELQEAQNARIEIAQKHPDIYAVPIKAPKPDAGLPPHMSSRPPEPQKAPSRLYQDTRGSYGSDPEEEEYRQQLAAHSKRGYYSQPSRYRDTEL
On to B3, for which the binding entry is reported as “binds”.
